# Assay results reported in the supplement of paper PMC4604168 (melanoma cell lines).
# The other results are listed elsewhere or left out. Repeats are few or missing, and single values can be far off.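 Imaging used 1,536-well plates; nuclei positive for cleaved PARP by antibody were divided by total DNA-stained nuclei to yield the apoptosis fraction. Doses for screening kept most cells viable, and cell lines differ markedly in resting and induced cleaved-PARP levels.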
# Experiments:
# Assay in all cases: cleaved PARP positive nuclei fraction relative to DMSO control; melanoma cells; higher = more apoptosis
# Settings in all cases: library dose: low library concentration; 72 h
# MZ2-MEL = system: MZ2-MEL
# MeWo = system: MeWo
# RPMI7951 = system: RPMI7951
# RVH-421 = system: RVH-421
# SkMel28 = system: SkMel28
# SkMel2 = system: SkMel2
# SkMel30 = system: SkMel30
# SkMel5 = system: SkMel5
# UACC257 = system: UACC257
# UACC62 = system: UACC62
# WM115 = system: WM115
# WM1716 = system: WM1716
# WM1745 = system: WM1745
# WM3526 = system: WM3526
# WM3619 = system: WM3619
# WM451Lu = system: WM451Lu
SMILES,cleaved PARP positive nuclei fraction (MZ2-MEL),cleaved PARP positive nuclei fraction (MeWo),cleaved PARP positive nuclei fraction (RPMI7951),cleaved PARP positive nuclei fraction (RVH-421),cleaved PARP positive nuclei fraction (SkMel28),cleaved PARP positive nuclei fraction (SkMel2),cleaved PARP positive nuclei fraction (SkMel30),cleaved PARP positive nuclei fraction (SkMel5),cleaved PARP positive nuclei fraction (UACC257),cleaved PARP positive nuclei fraction (UACC62),cleaved PARP positive nuclei fraction (WM115),cleaved PARP positive nuclei fraction (WM1716),cleaved PARP positive nuclei fraction (WM1745),cleaved PARP positive nuclei fraction (WM3526),cleaved PARP positive nuclei fraction (WM3619),cleaved PARP positive nuclei fraction (WM451Lu)
"O=C(/C=C/c1cccnc1)NCCCCC1CCN(C(=O)c2ccccc2)CC1 + Oc1nc(-c2ccc(C(F)(F)F)cc2)nc2c1CSCC2 [XAV939] (first compound 0.01 µM, partner dose 2 µM)",99.5%,162%,231%,67.9%,133%,126%,79.9%,211%,184%,131%,155%,194%,99.9%,40.4%,168%,37.9%
"N#CC[C@H](C1CCCC1)n1cc(-c2ncnc3[nH]ccc23)cn1 [ruxolitinib] + Cn1cc(/C=C2\C(=O)Nc3cccnc32)c2ccccc21 [GW441756] (first compound 1 µM, partner dose 0.4 µM)",111%,127%,83.4%,117%,91.8%,83.7%,111%,81.1%,178%,64%,173%,58.8%,89%,63.8%,89.5%,131%
"O=C(Nc1cc(C(F)(F)F)cc(C(F)(F)F)c1)c1cc(Cl)ccc1O + CN(NC(=O)CC(=O)NN(C)C(=S)c1ccccc1)C(=S)c1ccccc1 [STA4783] (first compound 0.016 µM, partner dose 0.006 µM)",24.1%,49.3%,33.9%,39.9%,60.3%,53.7%,77.9%,34.7%,96%,97.5%,172%,249%,226%,153%,109%,116%
"Cc1cc(Nc2cc(N3CCN(C)CC3)nc(Sc3ccc(NC(=O)C4CC4)cc3)n2)n[nH]1 [Tozasertib] + O=C(CCCCCCC(=O)Nc1ccccc1)NO [vorinostat] (first compound 0.006 µM, partner dose 0.08 µM)",52%,129%,57.3%,139%,38%,85.4%,65.6%,194%,38.7%,125%,151%,39.2%,99.1%,171%,109%,76.6%
"CC[C@]1(O)C[C@H]2CN(CCc3c([nH]c4ccccc34)[C@@](C(=O)OC)(c3cc4c(cc3OC)N(C=O)[C@H]3[C@@](O)(C(=O)OC)[C@H](OC(C)=O)[C@]5(CC)C=CCN6CC[C@]43[C@@H]65)C2)C1 [vincristine] + CCc1ccc(CCOc2ccc(CC3SC(=O)NC3=O)cc2)nc1 [pioglitazone] (first compound 0.0001 µM, partner dose 2 µM)",187%,95.1%,86.5%,154%,513%,261%,40.4%,101%,1030%,380%,1820%,290%,114%,108%,159%,74.5%
"CCCCCCCCCCCCCCCCCCOP(=O)([O-])OC1CC[N+](C)(C)CC1 [Perifosine] + O=C(Nc1ccccc1)c1cc([N+](=O)[O-])ccc1Cl [GW9662] (first compound 0.4 µM, partner dose 2 µM)",141%,82.2%,97.6%,47.2%,155%,28.9%,91.7%,78.6%,110%,186%,81.8%,279%,93.7%,50.8%,107%,72.4%
"O=C(Nc1cc(C(F)(F)F)cc(C(F)(F)F)c1)c1cc(Cl)ccc1O + O=C(O)c1ccc(-c2c[nH]c3ncc(-c4ccccc4)cc23)cc1C1CCCC1 [GSK650394] (first compound 0.016 µM, partner dose 0.16 µM)",104%,78.8%,114%,71.9%,89.3%,125%,69.6%,152%,107%,82.3%,77.1%,59.2%,80.4%,107%,98.2%,107%
"Cc1cn(-c2cc(NC(=O)c3ccc(C)c(Nc4nccc(-c5cccnc5)n4)c3)cc(C(F)(F)F)c2)cn1 [nilotinib] + CN(C)S(=O)(=O)c1ccc2c(c1)/C(=C/c1cc3c([nH]1)CCCC3)C(=O)N2 [SU6656] (first compound 0.2 µM, partner dose 0.4 µM)",116%,50.5%,137%,146%,257%,74.6%,68.8%,70.8%,30.4%,115%,69.3%,84.6%,97.3%,56.2%,90.1%,195%
"Cc1cn(-c2cc(NC(=O)c3ccc(C)c(Nc4nccc(-c5cccnc5)n4)c3)cc(C(F)(F)F)c2)cn1 [nilotinib] + C[C@@H]1CCN(C(=O)CC#N)C[C@@H]1N(C)c1ncnc2[nH]ccc12 [CP690550] (first compound 0.2 µM, partner dose 1 µM)",77.9%,46%,59%,107%,226%,154%,116%,348%,470%,194%,60.2%,154%,94.5%,67.1%,91.6%,85.5%
"Cc1cc(Nc2cc(N3CCN(C)CC3)nc(Sc3ccc(NC(=O)C4CC4)cc3)n2)n[nH]1 [Tozasertib] + O=c1cc(-c2cccc3c2Sc2ccccc2S3)oc(N2CCOCC2)c1 [KU55933] (first compound 0.006 µM, partner dose 1 µM)",191%,146%,170%,36.6%,124%,124%,87%,69.7%,236%,184%,227%,99.1%,99.4%,93.1%,77.2%,155%
"O=C(Nc1cc(C(F)(F)F)cc(C(F)(F)F)c1)c1cc(Cl)ccc1O + O=C(CCCCCCC(=O)Nc1ccccc1)NO [vorinostat] (first compound 0.016 µM, partner dose 0.08 µM)",97.7%,38.7%,162%,56.2%,606%,73.6%,63.4%,217%,170%,156%,181%,452%,85.2%,139%,96.3%,76.4%
"Cc1ccc(Nc2nccc(N(C)c3ccc4c(C)n(C)nc4c3)n2)cc1S(N)(=O)=O [Pazopanib] + COc1cc(N2CCC(N3CCN(C)CC3)CC2)ccc1Nc1ncc(Cl)c(Nc2ccccc2S(=O)(=O)C(C)C)n1 [NVP-TAE684] (first compound 0.4 µM, partner dose 0.08 µM)",44.5%,94.3%,103%,96.5%,128%,71%,62.2%,79.7%,113%,115%,56.3%,129%,117%,99.6%,135%,51.8%
"O=c1[nH]nc(Sc2ncc([N+](=O)[O-])s2)n1-c1ccc2c(c1)OCCO2 + CN(NC(=O)CC(=O)NN(C)C(=S)c1ccccc1)C(=S)c1ccccc1 [STA4783] (first compound 0.2 µM, partner dose 0.006 µM)",121%,102%,70.3%,52.3%,129%,77.6%,140%,247%,47%,236%,147%,59.7%,151%,68%,126%,118%
"CC[C@]1(O)C[C@H]2CN(CCc3c([nH]c4ccccc34)[C@@](C(=O)OC)(c3cc4c(cc3OC)N(C=O)[C@H]3[C@@](O)(C(=O)OC)[C@H](OC(C)=O)[C@]5(CC)C=CCN6CC[C@]43[C@@H]65)C2)C1 [vincristine] + COc1cc2ncnc(Nc3ccc(Oc4ccccc4)cc3)c2cc1OC [SrcI1] (first compound 0.0001 µM, partner dose 2 µM)",101%,249%,71.1%,93.7%,2730%,116%,111%,99.3%,907%,463%,3450%,127%,125%,89.1%,208%,532%
"CC[C@]1(O)C[C@H]2CN(CCc3c([nH]c4ccccc34)[C@@](C(=O)OC)(c3cc4c(cc3OC)N(C=O)[C@H]3[C@@](O)(C(=O)OC)[C@H](OC(C)=O)[C@]5(CC)C=CCN6CC[C@]43[C@@H]65)C2)C1 [vincristine] + O=S(=O)(c1ccccc1)N(CC(F)(F)F)c1ccc(C(O)(C(F)(F)F)C(F)(F)F)cc1 [T0901317] (first compound 0.0001 µM, partner dose 1.4 µM)",99.2%,56%,134%,365%,132%,227%,109%,92.7%,467%,280%,1830%,163%,134%,130%,175%,164%
"N#CC[C@H](C1CCCC1)n1cc(-c2ncnc3[nH]ccc23)cn1 [ruxolitinib] + N#Cc1c(O)c2c(-c3ccc(-c4ccccc4O)cc3)csc2[nH]c1=O [A769662] (first compound 1 µM, partner dose 2 µM)",80.2%,96.4%,149%,93.5%,62.1%,97.3%,44.1%,72.6%,42.6%,188%,126%,71.4%,96.7%,45.6%,107%,35.9%
"O=c1[nH]nc(Sc2ncc([N+](=O)[O-])s2)n1-c1ccc2c(c1)OCCO2 + COc1ccc(-c2ccc3c(N4CCOCC4)nc(N4C[C@@H](C)O[C@@H](C)C4)nc3n2)cc1CO [KU0063794] (first compound 0.2 µM, partner dose 0.02 µM)",44.1%,81.8%,64.5%,15.2%,88.7%,177%,87.9%,134%,165%,62.8%,22.3%,81.1%,83.4%,67%,93.5%,69.5%
"Cc1cn(-c2cc(NC(=O)c3ccc(C)c(Nc4nccc(-c5cccnc5)n4)c3)cc(C(F)(F)F)c2)cn1 [nilotinib] + CS(=O)(=O)CCNCc1ccc(-c2ccc3ncnc(Nc4ccc(OCc5cccc(F)c5)c(Cl)c4)c3c2)o1 [lapatinib] (first compound 0.2 µM, partner dose 0.8 µM)",209%,103%,42.3%,74.9%,41.9%,43.8%,175%,89.2%,89.2%,123%,69.1%,38.5%,108%,41.2%,68.5%,168%

# Some of the entries above, reformatted.
SMILES	cleaved PARP positive nuclei fraction (MZ2-MEL)	cleaved PARP positive nuclei fraction (MeWo)	cleaved PARP positive nuclei fraction (RPMI7951)	cleaved PARP positive nuclei fraction (RVH-421)	cleaved PARP positive nuclei fraction (SkMel28)	cleaved PARP positive nuclei fraction (SkMel2)	cleaved PARP positive nuclei fraction (SkMel30)	cleaved PARP positive nuclei fraction (SkMel5)	cleaved PARP positive nuclei fraction (UACC257)	cleaved PARP positive nuclei fraction (UACC62)	cleaved PARP positive nuclei fraction (WM115)	cleaved PARP positive nuclei fraction (WM1716)	cleaved PARP positive nuclei fraction (WM1745)	cleaved PARP positive nuclei fraction (WM3526)	cleaved PARP positive nuclei fraction (WM3619)	cleaved PARP positive nuclei fraction (WM451Lu)
CCCCCCCCCCCCCCCCCCOP(=O)([O-])OC1CC[N+](C)(C)CC1 [Perifosine] + O=C(Nc1ccccc1)c1cc([N+](=O)[O-])ccc1Cl [GW9662] (first compound 0.4 µM, partner dose 2 µM)	141%	82.2%	97.6%	47.2%	155%	28.9%	91.7%	78.6%	110%	186%	81.8%	279%	93.7%	50.8%	107%	72.4%
Cc1cc(Nc2cc(N3CCN(C)CC3)nc(Sc3ccc(NC(=O)C4CC4)cc3)n2)n[nH]1 [Tozasertib] + O=c1cc(-c2cccc3c2Sc2ccccc2S3)oc(N2CCOCC2)c1 [KU55933] (first compound 0.006 µM, partner dose 1 µM)	191%	146%	170%	36.6%	124%	124%	87%	69.7%	236%	184%	227%	99.1%	99.4%	93.1%	77.2%	155%
